Among the data in the supplement of paper PMC12819154, “High-throughput peptide-centric local stability assay extends protein–ligand identification to membrane proteins, tissues and bacteria” (Nature Structural & Molecular Biology, 2025) are log2 fold change values, retold here.

Protein sequences, listed by entry. Tags and fused reporters are not part of them. Lines headed by an entry give the natural chain unless they say otherwise; changes in a name come on top.
UniProt P0CJ78: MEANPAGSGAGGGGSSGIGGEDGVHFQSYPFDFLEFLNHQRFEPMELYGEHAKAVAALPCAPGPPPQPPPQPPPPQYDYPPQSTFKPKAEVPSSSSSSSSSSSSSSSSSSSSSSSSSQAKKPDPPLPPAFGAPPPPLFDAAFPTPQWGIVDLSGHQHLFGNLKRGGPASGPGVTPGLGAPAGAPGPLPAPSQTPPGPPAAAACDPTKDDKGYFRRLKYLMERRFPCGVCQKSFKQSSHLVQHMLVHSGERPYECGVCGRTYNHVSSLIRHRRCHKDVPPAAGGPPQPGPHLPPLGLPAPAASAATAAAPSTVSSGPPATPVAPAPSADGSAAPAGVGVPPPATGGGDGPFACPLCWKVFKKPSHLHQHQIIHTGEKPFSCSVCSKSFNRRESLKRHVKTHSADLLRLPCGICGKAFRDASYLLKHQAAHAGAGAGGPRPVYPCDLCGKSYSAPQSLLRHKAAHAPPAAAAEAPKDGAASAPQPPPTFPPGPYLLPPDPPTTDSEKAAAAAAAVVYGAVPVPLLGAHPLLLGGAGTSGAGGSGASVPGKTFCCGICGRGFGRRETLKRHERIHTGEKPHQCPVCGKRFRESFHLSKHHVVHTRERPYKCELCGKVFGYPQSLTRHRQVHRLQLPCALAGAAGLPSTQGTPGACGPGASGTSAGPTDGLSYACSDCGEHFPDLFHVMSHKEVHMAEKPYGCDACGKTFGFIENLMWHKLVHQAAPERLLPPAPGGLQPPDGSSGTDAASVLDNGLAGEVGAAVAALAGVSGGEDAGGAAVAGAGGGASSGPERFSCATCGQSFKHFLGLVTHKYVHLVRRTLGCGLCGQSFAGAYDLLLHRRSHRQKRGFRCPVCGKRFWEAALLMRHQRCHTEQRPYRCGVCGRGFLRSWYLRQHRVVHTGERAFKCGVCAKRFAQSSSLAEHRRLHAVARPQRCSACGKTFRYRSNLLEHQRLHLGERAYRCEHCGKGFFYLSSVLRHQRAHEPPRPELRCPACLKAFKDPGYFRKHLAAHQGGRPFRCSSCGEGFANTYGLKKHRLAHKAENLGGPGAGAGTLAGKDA
UniProt P07355, whole entry: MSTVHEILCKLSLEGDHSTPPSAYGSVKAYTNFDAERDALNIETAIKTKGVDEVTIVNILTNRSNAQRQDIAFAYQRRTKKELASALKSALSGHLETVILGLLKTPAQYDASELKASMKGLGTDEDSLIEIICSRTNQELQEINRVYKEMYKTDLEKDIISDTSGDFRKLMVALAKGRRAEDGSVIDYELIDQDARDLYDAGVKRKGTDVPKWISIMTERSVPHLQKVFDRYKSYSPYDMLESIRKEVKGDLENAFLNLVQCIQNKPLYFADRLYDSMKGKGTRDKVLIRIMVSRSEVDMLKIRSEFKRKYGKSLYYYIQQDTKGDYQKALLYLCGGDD
UniProt P08238, whole entry: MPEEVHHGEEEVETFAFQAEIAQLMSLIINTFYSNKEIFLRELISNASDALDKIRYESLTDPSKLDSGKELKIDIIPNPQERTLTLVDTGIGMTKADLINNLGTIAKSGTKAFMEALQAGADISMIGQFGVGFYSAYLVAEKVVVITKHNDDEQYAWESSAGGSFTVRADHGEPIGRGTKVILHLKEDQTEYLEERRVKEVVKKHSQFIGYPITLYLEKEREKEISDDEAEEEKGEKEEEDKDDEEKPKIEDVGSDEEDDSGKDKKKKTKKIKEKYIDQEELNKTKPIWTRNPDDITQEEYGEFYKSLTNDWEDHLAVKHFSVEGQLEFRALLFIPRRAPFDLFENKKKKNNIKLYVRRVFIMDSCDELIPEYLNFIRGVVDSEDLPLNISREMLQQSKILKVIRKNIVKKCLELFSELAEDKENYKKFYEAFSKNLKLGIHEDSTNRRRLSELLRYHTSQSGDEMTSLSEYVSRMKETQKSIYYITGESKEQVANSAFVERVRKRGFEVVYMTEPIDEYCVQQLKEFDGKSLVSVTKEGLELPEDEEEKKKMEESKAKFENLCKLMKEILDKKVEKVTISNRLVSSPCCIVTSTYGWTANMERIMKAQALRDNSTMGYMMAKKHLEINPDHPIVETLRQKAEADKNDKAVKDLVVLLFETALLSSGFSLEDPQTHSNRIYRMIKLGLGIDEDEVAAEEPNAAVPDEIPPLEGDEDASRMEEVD
UniProt P08240: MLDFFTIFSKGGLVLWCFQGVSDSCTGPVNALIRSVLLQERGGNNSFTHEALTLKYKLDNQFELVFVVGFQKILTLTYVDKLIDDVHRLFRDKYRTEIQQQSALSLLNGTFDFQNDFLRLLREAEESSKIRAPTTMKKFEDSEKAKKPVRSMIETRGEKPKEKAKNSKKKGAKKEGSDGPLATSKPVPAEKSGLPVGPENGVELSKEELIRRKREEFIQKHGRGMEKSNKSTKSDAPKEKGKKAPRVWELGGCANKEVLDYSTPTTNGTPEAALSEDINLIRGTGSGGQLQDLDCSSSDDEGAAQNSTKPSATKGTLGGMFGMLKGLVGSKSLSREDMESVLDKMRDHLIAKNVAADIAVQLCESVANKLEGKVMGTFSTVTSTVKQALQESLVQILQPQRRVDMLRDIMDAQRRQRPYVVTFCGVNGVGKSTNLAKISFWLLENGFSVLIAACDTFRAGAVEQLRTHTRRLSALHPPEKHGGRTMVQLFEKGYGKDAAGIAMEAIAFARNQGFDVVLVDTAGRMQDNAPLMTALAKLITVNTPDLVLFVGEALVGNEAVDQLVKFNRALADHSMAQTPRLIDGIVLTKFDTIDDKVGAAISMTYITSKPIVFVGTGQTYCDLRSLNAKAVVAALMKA
UniProt P08758: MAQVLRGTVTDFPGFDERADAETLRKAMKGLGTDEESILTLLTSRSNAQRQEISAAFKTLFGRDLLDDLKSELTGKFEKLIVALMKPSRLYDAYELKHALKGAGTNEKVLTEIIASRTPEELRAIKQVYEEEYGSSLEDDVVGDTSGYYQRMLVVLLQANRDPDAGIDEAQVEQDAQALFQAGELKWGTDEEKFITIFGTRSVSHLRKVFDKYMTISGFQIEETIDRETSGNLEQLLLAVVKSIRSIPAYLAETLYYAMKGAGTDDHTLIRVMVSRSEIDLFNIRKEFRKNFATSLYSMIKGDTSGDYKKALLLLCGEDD
UniProt P14174: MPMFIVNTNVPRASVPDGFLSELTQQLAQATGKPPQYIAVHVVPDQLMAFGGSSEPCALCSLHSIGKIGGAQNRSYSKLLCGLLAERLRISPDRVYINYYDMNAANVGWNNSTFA
UniProt P09972: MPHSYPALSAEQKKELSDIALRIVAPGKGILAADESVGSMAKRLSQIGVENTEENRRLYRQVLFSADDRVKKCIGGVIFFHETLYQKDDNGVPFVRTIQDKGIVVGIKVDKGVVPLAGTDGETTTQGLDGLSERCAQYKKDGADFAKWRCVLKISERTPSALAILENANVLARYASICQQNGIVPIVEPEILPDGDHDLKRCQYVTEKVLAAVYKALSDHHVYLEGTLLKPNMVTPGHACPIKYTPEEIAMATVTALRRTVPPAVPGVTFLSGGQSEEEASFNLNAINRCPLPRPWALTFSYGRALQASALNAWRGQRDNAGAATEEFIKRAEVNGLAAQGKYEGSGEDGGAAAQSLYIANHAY
UniProt P09012, whole entry: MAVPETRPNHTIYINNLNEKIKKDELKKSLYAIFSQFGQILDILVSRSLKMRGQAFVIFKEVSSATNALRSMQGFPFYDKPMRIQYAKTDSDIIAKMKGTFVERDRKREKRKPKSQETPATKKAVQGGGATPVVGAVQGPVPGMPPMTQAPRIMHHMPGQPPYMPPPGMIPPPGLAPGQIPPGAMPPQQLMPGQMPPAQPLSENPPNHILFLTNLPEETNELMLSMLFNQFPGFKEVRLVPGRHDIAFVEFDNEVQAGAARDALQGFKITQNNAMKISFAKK
UniProt P07814: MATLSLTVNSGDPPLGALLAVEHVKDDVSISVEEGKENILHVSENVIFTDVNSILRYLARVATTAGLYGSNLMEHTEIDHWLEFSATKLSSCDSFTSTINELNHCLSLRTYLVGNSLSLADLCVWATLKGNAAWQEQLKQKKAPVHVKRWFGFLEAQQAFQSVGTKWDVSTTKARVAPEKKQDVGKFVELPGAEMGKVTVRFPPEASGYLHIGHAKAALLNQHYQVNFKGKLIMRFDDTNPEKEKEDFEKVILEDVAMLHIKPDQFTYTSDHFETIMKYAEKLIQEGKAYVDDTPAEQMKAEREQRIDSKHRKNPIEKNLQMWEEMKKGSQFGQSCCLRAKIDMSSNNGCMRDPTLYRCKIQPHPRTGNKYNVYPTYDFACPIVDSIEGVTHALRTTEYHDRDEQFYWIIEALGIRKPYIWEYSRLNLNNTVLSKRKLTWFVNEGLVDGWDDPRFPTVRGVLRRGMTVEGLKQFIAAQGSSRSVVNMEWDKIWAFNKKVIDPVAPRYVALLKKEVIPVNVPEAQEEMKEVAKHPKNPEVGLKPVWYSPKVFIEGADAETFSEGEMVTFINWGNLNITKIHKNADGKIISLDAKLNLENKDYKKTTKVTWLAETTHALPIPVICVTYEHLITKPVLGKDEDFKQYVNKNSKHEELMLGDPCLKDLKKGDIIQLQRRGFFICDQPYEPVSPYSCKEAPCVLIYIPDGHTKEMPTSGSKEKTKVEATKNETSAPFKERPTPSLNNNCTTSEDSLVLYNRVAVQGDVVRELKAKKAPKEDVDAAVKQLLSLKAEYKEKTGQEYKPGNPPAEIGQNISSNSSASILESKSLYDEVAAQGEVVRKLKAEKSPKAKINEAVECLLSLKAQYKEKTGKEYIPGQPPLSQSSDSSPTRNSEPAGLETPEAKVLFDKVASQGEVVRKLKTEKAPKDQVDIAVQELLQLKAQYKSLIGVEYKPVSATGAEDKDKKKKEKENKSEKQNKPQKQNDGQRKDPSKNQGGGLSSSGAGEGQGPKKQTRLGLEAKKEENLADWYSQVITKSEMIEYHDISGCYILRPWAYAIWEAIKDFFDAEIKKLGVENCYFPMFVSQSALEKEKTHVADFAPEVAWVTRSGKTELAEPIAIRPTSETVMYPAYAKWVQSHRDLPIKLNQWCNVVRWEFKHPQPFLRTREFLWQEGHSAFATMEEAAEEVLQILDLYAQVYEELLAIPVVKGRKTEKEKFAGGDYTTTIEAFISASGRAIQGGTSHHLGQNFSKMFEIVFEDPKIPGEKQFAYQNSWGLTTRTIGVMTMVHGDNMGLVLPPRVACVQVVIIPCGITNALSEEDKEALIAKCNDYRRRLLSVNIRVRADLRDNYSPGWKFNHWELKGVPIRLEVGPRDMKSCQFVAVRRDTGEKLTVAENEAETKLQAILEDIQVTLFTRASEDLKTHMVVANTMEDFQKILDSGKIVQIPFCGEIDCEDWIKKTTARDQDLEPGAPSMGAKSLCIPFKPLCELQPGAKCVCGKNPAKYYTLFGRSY
UniProt P0DME0, whole entry: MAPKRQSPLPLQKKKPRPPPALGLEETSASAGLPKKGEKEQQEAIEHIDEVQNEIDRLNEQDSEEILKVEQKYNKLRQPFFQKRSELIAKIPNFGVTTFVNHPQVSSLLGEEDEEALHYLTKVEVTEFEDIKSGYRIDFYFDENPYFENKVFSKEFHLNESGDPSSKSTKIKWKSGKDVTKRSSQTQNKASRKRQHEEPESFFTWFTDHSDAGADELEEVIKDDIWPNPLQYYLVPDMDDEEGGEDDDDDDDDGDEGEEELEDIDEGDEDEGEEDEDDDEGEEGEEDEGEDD
UniProt P10075: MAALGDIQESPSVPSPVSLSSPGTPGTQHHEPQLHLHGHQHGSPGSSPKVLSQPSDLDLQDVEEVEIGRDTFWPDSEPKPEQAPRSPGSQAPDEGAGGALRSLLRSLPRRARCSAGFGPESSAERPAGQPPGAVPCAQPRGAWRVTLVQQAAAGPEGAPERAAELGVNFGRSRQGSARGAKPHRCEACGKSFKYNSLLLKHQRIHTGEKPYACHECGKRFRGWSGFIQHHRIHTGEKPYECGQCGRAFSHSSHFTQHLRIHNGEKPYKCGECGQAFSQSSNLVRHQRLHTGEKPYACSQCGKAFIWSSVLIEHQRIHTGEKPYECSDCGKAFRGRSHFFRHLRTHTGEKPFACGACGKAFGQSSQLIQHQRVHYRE
UniProt P09086: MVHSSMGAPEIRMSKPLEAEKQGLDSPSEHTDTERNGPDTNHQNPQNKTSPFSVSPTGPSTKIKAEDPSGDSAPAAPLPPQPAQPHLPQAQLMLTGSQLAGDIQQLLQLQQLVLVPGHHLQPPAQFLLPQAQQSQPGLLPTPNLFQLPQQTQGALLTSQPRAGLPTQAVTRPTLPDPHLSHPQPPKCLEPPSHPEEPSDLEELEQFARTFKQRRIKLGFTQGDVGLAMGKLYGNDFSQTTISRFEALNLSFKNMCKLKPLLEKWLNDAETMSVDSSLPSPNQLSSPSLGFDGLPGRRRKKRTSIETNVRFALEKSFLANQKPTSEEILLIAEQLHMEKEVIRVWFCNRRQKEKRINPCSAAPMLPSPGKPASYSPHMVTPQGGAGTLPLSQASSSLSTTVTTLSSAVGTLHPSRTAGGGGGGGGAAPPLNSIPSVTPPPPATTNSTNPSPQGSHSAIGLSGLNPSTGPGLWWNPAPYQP

This is one part of the list. Most values lie at the level of the controls, where differences are scatter.

Compound in this assay: Cc1nc(Nc2ncc(C(=O)Nc3c(C)cccc3Cl)s2)cc(N2CCN(CCO)CC2)n1 [dasatinib]
As to the kind of experiment: log2 fold change of tryptic peptide abundance, ligand vs vehicle (limited proteolysis) (log2 ratio); higher = more trypsin-susceptible (destabilized). Conditions: ligand concentration: 5 uM; sample: K562 cleared lysate.
For the target “UniProt P0CJ78 (peptide sequence: AAHAPPAAAAEAPK, peptide start residue: 461)”, the log2 fold change is -0.639.

“ANXA2 (peptide sequence: IRSEFKR, peptide start residue: 303) (UniProt P07355)”: the log2 fold change worked out at 0.503.

Consider “DLD (peptide sequence: ALLNNSHYYHMAHGK, peptide start residue: 90) (UniProt P09622)”, for which the log2 fold change is 0.092.

Take “ZNF688 (peptide sequence: KEEEPEEVPR, peptide start residue: 110) (UniProt P0C7X2)”: the log2 fold change is -0.409.

Turning to “HSP90AB1 (peptide sequence: APFDLFENK, peptide start residue: 339) (UniProt P08238)”, the log2 fold change was -0.18.

For “LCP1 (peptide sequence: AACLPLPGYR, peptide start residue: 40) (UniProt P13796)”, the log2 fold change amounted to 0.148.

On to “UniProt P08240 (peptide sequence: TMVQLFEK, peptide start residue: 485)”, for which the log2 fold change is -0.251.

As to “UniProt P0CG12 (peptide sequence: PVGLGPGPNPNLR, peptide start residue: 202)”, the log2 fold change was -1.16.

With “ANXA5 (peptide sequence: VLTEIIASR, peptide start residue: 109) (UniProt P08758)”, the log2 fold change stood at 0.182.

“POLB (peptide sequence: AASVIAK, peptide start residue: 42) (UniProt P06746)”: the log2 fold change was -0.462.

Turning to “EEF1AKMT4 (peptide sequence: WETMDVR, peptide start residue: 109) (UniProt P0DPD7)”, the log2 fold change was found to be 0.256.

Consider “MIF (peptide sequence: PMFIVNTNVPR, peptide start residue: 2) (UniProt P14174)”, for which the log2 fold change is -0.0562.

With “ALDOC (peptide sequence: AEVNGLAAQGK, peptide start residue: 332) (UniProt P09972)”, the log2 fold change amounted to 0.249.

Consider “ACTN1 (peptide sequence: LSNRPAFMPSEGR, peptide start residue: 347) (UniProt P12814)”, for which the log2 fold change stood at 0.242.

For “SRGN (peptide sequence: GPMFELLPGESNKIPR, peptide start residue: 54) (UniProt P10124)”, the log2 fold change was -0.207.

With “UniProt P04054 (peptide sequence: NAAICFSK, peptide start residue: 123)”, the log2 fold change is -0.0775.

Regarding “UniProt P10827 (peptide sequence: SQEAYLLAFEHYVNHR, peptide start residue: 341)”, the log2 fold change is 0.213.

On to “GSN (peptide sequence: AGALNSNDAFVLK, peptide start residue: 585) (UniProt P06396)”, for which the log2 fold change was found to be 0.13.

For the target “SNRPA (peptide sequence: SMQGFPFYDKPMR, peptide start residue: 71) (UniProt P09012)”, the log2 fold change was 0.582.

“EPRS (peptide sequence: AKIDMSSNNGCMRDPTLYR, peptide start residue: 340) (UniProt P07814)”: the log2 fold change worked out at 0.165.

Turning to “UniProt P0DME0 (peptide sequence: VEVTEFEDIK, peptide start residue: 123)”, the log2 fold change was found to be 0.193.

With “NPM1 (peptide sequence: TPKGPSSVEDIK, peptide start residue: 237) (UniProt P06748)”, the log2 fold change was -0.4.

On to “UniProt P10075 (peptide sequence: AAELGVNFGR, peptide start residue: 162)”, for which the log2 fold change stood at 0.0897.

“NEFH (peptide sequence: SPADKFPEK, peptide start residue: 782) (UniProt P12036)”: the log2 fold change is -0.847.

Regarding “MYBL2 (peptide sequence: DQLFMQEK, peptide start residue: 673) (UniProt P10244)”, the log2 fold change is -0.425.

For “ERCC1 (peptide sequence: VTECLTTVK, peptide start residue: 235) (UniProt P07992)”, the log2 fold change is 0.073.

Turning to “UniProt P09086 (peptide sequence: IKLGFTQGDVGLAMGK, peptide start residue: 300)”, the log2 fold change amounted to 0.294.

With “PC (peptide sequence: SFQPDTGRIEVFR, peptide start residue: 386) (UniProt P11498)”, the log2 fold change is -0.122.

“ACP2 (peptide sequence: HVADGEDHA, peptide start residue: 415) (UniProt P11117)”: the log2 fold change was 1.11.
